± gives the standard deviation of the averaged measurements. This is a selection; strong and weak results do not stand in their true shares.
Compound: Nc1ncnc2c1ncn2[C@@H]1O[C@H](COP(=O)(O)OP(=O)(O)NP(=O)(O)O)[C@@H](O)[C@H]1O [adenylyl imidodiphosphate]
Assay: NP40-soluble protein abundance relative to vehicle (solubility fold change) (ratio); higher = more soluble protein in presence of AMP-PNP
Procedure, shortened: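 Jurkat crude lysate prepared with a Dounce homogeniser was treated at eight concentrations spanning 0.1 to 10 mM, 10 min at room temperature then 3 min at 37 °C. Solubilisation with 0.8% NP40 and benzonase and ultracentrifugation preceded TMT labelling of the supernatant for LC-MS/MS. Fold change against the detergent-processed vehicle was determined per replicate from vsn-normalised intensities, across three independent experiments.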

By UniProt entry, the sequences of proteins in these tests, tags left out. Where a name states a change or a piece, a line headed by the entry shows the natural chain unless it says otherwise.
UniProt Q13952: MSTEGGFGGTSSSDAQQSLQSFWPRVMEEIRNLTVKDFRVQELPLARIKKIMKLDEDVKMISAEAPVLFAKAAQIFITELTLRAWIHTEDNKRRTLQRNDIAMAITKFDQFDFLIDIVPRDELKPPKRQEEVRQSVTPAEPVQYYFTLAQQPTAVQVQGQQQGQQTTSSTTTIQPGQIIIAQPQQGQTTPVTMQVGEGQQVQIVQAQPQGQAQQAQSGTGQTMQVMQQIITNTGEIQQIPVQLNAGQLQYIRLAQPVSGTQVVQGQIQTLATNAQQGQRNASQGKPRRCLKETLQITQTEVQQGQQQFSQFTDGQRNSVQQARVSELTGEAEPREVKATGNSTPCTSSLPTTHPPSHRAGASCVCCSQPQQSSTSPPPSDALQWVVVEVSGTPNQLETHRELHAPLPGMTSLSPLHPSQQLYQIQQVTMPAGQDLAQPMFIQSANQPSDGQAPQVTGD
UniProt Q14258, whole entry: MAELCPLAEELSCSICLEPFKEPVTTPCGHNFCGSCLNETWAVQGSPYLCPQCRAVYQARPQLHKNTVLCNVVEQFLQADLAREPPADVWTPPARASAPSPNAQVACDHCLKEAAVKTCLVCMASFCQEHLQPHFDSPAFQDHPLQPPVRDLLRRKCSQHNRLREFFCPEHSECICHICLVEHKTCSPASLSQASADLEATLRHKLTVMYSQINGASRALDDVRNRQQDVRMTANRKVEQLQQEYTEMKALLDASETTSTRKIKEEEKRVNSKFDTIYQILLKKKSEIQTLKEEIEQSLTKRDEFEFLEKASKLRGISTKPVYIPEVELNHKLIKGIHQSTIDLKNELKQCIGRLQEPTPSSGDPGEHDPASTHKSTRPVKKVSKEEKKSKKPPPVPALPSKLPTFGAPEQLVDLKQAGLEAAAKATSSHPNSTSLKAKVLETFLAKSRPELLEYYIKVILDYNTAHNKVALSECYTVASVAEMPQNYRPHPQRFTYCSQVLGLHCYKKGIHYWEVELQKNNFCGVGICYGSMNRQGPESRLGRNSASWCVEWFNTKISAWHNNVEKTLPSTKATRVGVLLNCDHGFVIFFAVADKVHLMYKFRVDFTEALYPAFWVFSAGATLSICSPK
UniProt Q13112, whole entry, looked up: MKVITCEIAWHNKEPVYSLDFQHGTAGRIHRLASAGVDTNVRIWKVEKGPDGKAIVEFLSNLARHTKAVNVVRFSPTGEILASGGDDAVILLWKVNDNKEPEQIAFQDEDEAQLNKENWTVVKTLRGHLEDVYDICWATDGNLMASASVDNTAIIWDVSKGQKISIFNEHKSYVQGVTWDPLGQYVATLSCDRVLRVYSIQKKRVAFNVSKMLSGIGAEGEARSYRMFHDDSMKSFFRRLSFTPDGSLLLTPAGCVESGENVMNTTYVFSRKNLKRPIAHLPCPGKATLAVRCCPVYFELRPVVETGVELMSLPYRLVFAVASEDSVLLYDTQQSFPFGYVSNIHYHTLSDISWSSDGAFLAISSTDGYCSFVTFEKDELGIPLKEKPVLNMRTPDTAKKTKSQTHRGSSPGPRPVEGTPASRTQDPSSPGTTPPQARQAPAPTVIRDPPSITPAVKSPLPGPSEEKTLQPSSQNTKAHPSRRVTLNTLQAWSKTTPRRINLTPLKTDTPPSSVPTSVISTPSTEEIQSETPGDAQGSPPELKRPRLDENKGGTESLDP
UniProt Q14690: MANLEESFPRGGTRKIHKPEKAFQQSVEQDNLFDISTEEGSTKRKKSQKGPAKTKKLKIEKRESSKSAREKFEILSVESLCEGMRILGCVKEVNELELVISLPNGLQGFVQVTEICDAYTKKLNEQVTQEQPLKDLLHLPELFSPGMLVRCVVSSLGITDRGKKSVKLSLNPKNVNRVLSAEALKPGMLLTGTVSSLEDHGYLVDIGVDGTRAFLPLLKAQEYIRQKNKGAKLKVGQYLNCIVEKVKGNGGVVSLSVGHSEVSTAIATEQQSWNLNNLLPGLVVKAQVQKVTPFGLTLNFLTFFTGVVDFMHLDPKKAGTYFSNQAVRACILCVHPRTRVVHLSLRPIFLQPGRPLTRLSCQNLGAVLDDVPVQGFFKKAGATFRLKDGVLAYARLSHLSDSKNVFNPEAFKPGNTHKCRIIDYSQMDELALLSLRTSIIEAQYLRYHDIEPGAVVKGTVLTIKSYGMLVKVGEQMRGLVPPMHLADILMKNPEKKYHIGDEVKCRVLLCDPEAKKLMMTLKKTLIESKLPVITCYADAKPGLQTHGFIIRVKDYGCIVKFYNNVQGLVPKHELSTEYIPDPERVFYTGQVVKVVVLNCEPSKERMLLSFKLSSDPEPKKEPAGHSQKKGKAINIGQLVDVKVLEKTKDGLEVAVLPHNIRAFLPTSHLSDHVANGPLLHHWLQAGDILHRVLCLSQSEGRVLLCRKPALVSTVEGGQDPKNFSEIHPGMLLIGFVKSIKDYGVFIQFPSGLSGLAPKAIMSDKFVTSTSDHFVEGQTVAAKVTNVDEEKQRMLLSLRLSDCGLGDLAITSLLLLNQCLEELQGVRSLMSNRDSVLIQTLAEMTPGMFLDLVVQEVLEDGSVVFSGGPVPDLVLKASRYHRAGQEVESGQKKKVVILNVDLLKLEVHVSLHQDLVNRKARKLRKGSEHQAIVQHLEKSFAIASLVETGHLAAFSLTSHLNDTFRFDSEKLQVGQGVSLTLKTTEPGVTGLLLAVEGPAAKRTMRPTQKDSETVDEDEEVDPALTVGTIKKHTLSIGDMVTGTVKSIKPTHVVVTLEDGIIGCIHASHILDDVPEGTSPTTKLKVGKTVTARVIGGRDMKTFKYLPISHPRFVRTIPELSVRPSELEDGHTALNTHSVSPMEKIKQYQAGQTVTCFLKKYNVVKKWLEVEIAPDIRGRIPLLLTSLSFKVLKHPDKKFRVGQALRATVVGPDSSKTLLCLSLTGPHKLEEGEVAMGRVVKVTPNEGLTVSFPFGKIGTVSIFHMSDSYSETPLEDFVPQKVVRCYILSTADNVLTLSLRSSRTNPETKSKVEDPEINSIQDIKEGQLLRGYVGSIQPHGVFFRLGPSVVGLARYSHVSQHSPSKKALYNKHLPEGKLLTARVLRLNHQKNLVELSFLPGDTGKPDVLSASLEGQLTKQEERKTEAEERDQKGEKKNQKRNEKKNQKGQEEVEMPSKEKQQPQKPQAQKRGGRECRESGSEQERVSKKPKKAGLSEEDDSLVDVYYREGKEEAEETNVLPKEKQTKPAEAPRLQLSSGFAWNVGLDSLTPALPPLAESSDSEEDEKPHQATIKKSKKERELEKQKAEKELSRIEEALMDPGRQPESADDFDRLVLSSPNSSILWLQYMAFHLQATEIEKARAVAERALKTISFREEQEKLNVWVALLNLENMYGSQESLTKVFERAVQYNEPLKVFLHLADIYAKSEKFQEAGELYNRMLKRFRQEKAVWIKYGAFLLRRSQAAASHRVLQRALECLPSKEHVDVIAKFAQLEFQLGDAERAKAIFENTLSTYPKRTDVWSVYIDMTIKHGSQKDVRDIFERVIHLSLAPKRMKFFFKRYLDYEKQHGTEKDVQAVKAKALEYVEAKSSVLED
UniProt Q08AF3: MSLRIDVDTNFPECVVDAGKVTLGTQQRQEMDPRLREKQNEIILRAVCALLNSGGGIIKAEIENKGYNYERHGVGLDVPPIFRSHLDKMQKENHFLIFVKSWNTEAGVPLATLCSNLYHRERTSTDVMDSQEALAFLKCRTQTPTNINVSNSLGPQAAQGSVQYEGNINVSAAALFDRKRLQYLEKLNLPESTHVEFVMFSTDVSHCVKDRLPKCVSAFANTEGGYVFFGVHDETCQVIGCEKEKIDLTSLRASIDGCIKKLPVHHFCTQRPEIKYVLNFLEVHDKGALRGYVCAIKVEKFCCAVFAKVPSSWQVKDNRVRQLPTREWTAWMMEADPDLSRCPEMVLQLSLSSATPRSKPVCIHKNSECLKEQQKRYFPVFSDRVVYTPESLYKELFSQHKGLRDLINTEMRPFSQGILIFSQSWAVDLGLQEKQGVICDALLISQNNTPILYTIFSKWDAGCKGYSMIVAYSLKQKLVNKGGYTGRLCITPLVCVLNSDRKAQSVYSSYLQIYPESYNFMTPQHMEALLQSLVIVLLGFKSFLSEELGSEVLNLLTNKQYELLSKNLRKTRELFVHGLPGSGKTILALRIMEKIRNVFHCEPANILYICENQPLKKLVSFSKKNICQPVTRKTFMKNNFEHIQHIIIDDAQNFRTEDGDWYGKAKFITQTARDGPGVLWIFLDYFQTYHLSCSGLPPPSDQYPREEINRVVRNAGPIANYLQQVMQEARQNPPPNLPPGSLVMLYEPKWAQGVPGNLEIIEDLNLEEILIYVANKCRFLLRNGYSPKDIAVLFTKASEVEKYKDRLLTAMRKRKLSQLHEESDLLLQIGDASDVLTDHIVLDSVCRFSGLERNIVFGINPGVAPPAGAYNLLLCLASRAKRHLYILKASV
UniProt Q14145, whole entry: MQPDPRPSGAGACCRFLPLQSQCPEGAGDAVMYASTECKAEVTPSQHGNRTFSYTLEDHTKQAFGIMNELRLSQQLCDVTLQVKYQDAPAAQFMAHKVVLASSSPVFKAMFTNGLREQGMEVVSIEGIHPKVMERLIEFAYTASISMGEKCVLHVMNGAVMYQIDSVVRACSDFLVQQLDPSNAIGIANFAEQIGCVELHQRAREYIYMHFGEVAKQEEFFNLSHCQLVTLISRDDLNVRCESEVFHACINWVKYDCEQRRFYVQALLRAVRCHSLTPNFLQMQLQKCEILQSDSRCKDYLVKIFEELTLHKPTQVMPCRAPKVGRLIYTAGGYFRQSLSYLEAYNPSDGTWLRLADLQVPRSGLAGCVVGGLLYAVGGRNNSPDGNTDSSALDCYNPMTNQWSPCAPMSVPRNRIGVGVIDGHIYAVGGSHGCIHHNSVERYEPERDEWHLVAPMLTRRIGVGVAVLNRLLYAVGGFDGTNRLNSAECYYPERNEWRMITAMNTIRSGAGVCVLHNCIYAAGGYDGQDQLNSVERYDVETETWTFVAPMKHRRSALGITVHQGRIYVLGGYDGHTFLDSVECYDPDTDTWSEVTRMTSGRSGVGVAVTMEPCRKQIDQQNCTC
UniProt Q13888: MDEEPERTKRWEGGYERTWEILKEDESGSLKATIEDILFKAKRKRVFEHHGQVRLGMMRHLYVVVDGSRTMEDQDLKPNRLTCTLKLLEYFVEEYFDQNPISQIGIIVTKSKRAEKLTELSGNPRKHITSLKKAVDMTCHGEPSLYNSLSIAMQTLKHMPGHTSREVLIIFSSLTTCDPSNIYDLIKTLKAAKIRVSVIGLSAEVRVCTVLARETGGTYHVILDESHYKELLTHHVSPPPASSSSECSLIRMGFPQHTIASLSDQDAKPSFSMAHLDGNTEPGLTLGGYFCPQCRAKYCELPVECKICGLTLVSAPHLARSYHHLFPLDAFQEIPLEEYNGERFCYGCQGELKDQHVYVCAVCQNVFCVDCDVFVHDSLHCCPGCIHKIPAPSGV
UniProt Q13838, whole entry: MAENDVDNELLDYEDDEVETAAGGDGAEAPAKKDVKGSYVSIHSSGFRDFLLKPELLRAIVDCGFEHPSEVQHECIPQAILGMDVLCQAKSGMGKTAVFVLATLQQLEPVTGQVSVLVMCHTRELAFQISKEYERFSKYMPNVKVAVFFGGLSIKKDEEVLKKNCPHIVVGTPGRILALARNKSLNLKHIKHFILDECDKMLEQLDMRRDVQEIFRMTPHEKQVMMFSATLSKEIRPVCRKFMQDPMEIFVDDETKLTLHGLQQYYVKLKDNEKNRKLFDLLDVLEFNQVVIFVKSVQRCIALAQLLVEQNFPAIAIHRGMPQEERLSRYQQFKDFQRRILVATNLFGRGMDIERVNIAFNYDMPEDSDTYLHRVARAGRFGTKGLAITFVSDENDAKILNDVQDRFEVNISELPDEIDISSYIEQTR
UniProt Q13442: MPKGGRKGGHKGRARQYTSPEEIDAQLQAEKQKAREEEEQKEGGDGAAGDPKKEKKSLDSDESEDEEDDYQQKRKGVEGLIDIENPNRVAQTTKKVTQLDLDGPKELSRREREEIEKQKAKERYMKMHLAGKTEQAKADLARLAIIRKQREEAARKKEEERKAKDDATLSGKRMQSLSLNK
UniProt Q12904: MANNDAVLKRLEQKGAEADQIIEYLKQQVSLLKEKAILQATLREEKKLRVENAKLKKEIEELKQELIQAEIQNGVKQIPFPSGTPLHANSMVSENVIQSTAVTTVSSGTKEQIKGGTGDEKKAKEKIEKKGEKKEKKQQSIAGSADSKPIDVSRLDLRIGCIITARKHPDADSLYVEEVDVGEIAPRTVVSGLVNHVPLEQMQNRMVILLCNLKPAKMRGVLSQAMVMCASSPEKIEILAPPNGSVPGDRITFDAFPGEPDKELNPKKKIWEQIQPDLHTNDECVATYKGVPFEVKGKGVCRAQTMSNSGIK
UniProt Q13526, whole entry: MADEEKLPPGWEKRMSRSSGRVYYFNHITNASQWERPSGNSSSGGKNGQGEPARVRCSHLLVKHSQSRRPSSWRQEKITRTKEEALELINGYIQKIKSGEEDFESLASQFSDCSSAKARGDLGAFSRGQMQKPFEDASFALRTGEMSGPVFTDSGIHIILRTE

Target	NP40-soluble protein abundance (concentration: 1mM)	NP40-soluble protein abundance (concentration: 2mM)	NP40-soluble protein abundance (concentration: 4mM)	NP40-soluble protein abundance (concentration: 6mM)	NP40-soluble protein abundance (concentration: 8mM)	NP40-soluble protein abundance (concentration: 10mM)
EXOSC7 (UniProt Q15024)	1.03 ± 0.019	0.982 ± 0.09	1.11 ± 0.041	1.08 ± 0.069	1.16 ± 0.096	1.11 ± 0.12
UniProt Q12789 and related entries	1.03 ± 0.023	0.999 ± 0.016	1.03 ± 0.037	0.984 ± 0.043	0.985 ± 0.068	1 ± 0.062
ARHGEF6 (UniProt Q15052)	0.9922 ± 0.0094	0.998 ± 0.013	0.984 ± 0.0079	0.956 ± 0.025	0.94 ± 0.018	0.954 ± 0.019
CHAF1A (UniProt Q13111)	1.05 ± 0.02	1.1 ± 0.063	1.097 ± 0.0031	1.07 ± 0.045	1.05 ± 0.055	1.08 ± 0.076
UniProt Q15013 and related entries	1.01 ± 0.02	1.05 ± 0.024	0.999 ± 0.053	0.993 ± 0.033	0.996 ± 0.019	1.01 ± 0.022
UniProt Q13952 and related entries	1 ± 0.011	1.03 ± 0.051	1.001 ± 0.0077	1 ± 0.018	1.01 ± 0.011	1.01 ± 0.029
UniProt Q12872 and related entries	1.04 ± 0.04	1.11 ± 0.061	1.12 ± 0.043	1.17 ± 0.097	1.2 ± 0.1	1.33 ± 0.1
UniProt Q13105 and related entries	1.01 ± 0.06	1.011 ± 0.0042	1.03 ± 0.028	1.04 ± 0.057	1.04 ± 0.051	1.07 ± 0.072
BOP1 (UniProt Q14137)	1.01 ± 0.018	1.01 ± 0.028	0.973 ± 0.035	0.965 ± 0.038	0.931 ± 0.033	0.946 ± 0.025
TRIM25 (UniProt Q14258)	1.03 ± 0.06	1.07 ± 0.097	1.04 ± 0.037	1.09 ± 0.017	1.07 ± 0.051	1.06 ± 0.015
CHAF1B (UniProt Q13112)	1.004 ± 0.0095	1.01 ± 0.029	1.01 ± 0.011	1.01 ± 0.017	1 ± 0.028	1.01 ± 0.011
PDCD11 (UniProt Q14690)	0.9836 ± 0.0023	1.07 ± 0.017	1.08 ± 0.12	1.08 ± 0.044	1.19 ± 0.081	1.22 ± 0.12
BECN1 (UniProt Q14457)	1.02 ± 0.021	1.03 ± 0.0019	1.003 ± 0.00075	0.987 ± 0.055	0.939 ± 0.031	0.965 ± 0.045
DPYD (UniProt Q12882)	0.9983 ± 0.0072	0.973 ± 0.033	0.992 ± 0.013	0.965 ± 0.011	0.976 ± 0.03	0.954 ± 0.016
UniProt Q14155-1|B1ALK7	1.02 ± 0.016	1 ± 0.013	0.993 ± 0.018	0.952 ± 0.048	0.937 ± 0.022	0.925 ± 0.025
UniProt Q14289-2|Q14289	0.988 ± 0.027	0.956 ± 0.058	0.978 ± 0.018	0.903 ± 0.024	0.908 ± 0.021	0.888 ± 0.014
UniProt Q13029 and related entries	0.997 ± 0.025	1.05 ± 0.07	1.03 ± 0.019	0.996 ± 0.041	1 ± 0.011	1.018 ± 0.0089
SLFN5 (UniProt Q08AF3)	1.1 ± 0.071	1.07 ± 0.15	1.11 ± 0.13	1.06 ± 0.12	1.07 ± 0.12	1.06 ± 0.11
UniProt Q14161 and related entries	1.01 ± 0.03	1.02 ± 0.022	0.991 ± 0.015	0.985 ± 0.017	0.951 ± 0.017	0.9698 ± 0.0089
EXOSC2 (UniProt Q13868)	1.01 ± 0.032	0.966 ± 0.06	1.04 ± 0.045	1.11 ± 0.073	1.15 ± 0.074	1.15 ± 0.14
KEAP1 (UniProt Q14145)	1.001 ± 0.0091	0.965 ± 0.048	0.993 ± 0.014	0.989 ± 0.02	1 ± 0.017	0.95 ± 0.017
Q13888 and related entries (UniProt Q6P1K8+Q13888)	1.042 ± 0.0075	1.02 ± 0.017	1.03 ± 0.015	1.02 ± 0.026	1.05 ± 0.027	1 ± 0.041
NFX1 (UniProt Q12986)	1.031 ± 0.0067	1.07 ± 0.014	1.05 ± 0.047	1.07 ± 0.031	1.1 ± 0.046	1.13 ± 0.044
UniProt Q13838 and related entries	0.857 ± 0.07	0.784 ± 0.11	0.865 ± 0.071	0.882 ± 0.08	0.964 ± 0.053	0.934 ± 0.032
IDI1 (UniProt Q13907)	0.997 ± 0.026	0.981 ± 0.039	0.954 ± 0.04	1.01 ± 0.088	1 ± 0.051	0.98 ± 0.071
PDAP1 (UniProt Q13442)	1.07 ± 0.072	1.17 ± 0.026	1.13 ± 0.048	1.26 ± 0.093	1.24 ± 0.085	1.35 ± 0.12

No new results follow: an excerpt of the list.
Target	NP40-soluble protein abundance (concentration: 1mM)	NP40-soluble protein abundance (concentration: 2mM)	NP40-soluble protein abundance (concentration: 4mM)	NP40-soluble protein abundance (concentration: 6mM)	NP40-soluble protein abundance (concentration: 8mM)	NP40-soluble protein abundance (concentration: 10mM)
KEAP1 (UniProt Q14145)	1.001 ± 0.0091	0.965 ± 0.048	0.993 ± 0.014	0.989 ± 0.02	1 ± 0.017	0.95 ± 0.017
Q13888 and related entries (UniProt Q6P1K8+Q13888)	1.042 ± 0.0075	1.02 ± 0.017	1.03 ± 0.015	1.02 ± 0.026	1.05 ± 0.027	1 ± 0.041
NFX1 (UniProt Q12986)	1.031 ± 0.0067	1.07 ± 0.014	1.05 ± 0.047	1.07 ± 0.031	1.1 ± 0.046	1.13 ± 0.044
UniProt Q13838 and related entries	0.857 ± 0.07	0.784 ± 0.11	0.865 ± 0.071	0.882 ± 0.08	0.964 ± 0.053	0.934 ± 0.032

(listing goes on)

Target	NP40-soluble protein abundance (concentration: 1mM)	NP40-soluble protein abundance (concentration: 2mM)	NP40-soluble protein abundance (concentration: 4mM)	NP40-soluble protein abundance (concentration: 6mM)	NP40-soluble protein abundance (concentration: 8mM)	NP40-soluble protein abundance (concentration: 10mM)
UniProt Q14004 and related entries	1.04 ± 0.012	1.08 ± 0.016	1.09 ± 0.021	1.08 ± 0.033	1.05 ± 0.026	1.103 ± 0.0043
RBL2 (UniProt Q08999)	0.983 ± 0.019	0.997 ± 0.01	0.978 ± 0.025	0.974 ± 0.045	0.946 ± 0.012	0.9615 ± 0.0056
SAFB2 (UniProt Q14151)	1.08 ± 0.05	1.18 ± 0.064	1.15 ± 0.044	1.2 ± 0.08	1.2 ± 0.093	1.3 ± 0.12
DAG1 (UniProt Q14118)	1.019 ± 0.0087	1.06 ± 0.059	0.99 ± 0.029	1.04 ± 0.048	1.05 ± 0.027	1.05 ± 0.026
PPIL2 (UniProt Q13356)	1.03 ± 0.017	1.02 ± 0.029	1.04 ± 0.012	1.03 ± 0.026	1.02 ± 0.036	1.03 ± 0.039
FRG1 (UniProt Q14331)	1.06 ± 0.029	1.04 ± 0.041	1.09 ± 0.026	1.08 ± 0.022	1.13 ± 0.029	1.12 ± 0.023
UniProt Q12824	0.973 ± 0.021	0.948 ± 0.074	0.984 ± 0.074	0.948 ± 0.083	0.946 ± 0.034	0.923 ± 0.079
UniProt Q13163 and related entries	0.968 ± 0.026	1.01 ± 0.041	1.02 ± 0.057	0.958 ± 0.049	0.933 ± 0.019	0.941 ± 0.022
ECH1 (UniProt Q13011)	0.93 ± 0.02	0.871 ± 0.062	0.879 ± 0.022	0.952 ± 0.03	0.942 ± 0.011	0.908 ± 0.022
UniProt Q13951 and related entries	1.04 ± 0.027	1.13 ± 0.15	1.06 ± 0.053	1.03 ± 0.036	1.01 ± 0.022	1.06 ± 0.086
UniProt Q12904	0.99 ± 0.095	1.01 ± 0.068	0.95 ± 0.11	0.99 ± 0.15	0.961 ± 0.14	0.971 ± 0.15
NCOA6 (UniProt Q14686)	1 ± 0.043	1.06 ± 0.053	1.06 ± 0.037	0.975 ± 0.019	0.983 ± 0.029	0.992 ± 0.0062
UniProt Q13330 and related entries	1 ± 0.037	0.979 ± 0.092	1 ± 0.041	1 ± 0.046	1.04 ± 0.074	1.04 ± 0.093
ZNF638 (UniProt Q14966)	1.06 ± 0.02	1.11 ± 0.068	1.09 ± 0.02	1.1 ± 0.069	1.09 ± 0.048	1.15 ± 0.064
UniProt Q13885	1.03 ± 0.065	1.02 ± 0.049	0.986 ± 0.05	0.991 ± 0.054	0.948 ± 0.081	0.981 ± 0.055
EEA1 (UniProt Q15075)	1.02 ± 0.022	1.08 ± 0.078	1.02 ± 0.029	0.992 ± 0.014	0.958 ± 0.034	0.979 ± 0.043
UniProt Q13043	1.03 ± 0.01	1.02 ± 0.015	1.005 ± 0.0051	0.979 ± 0.028	0.9559 ± 0.0058	0.961 ± 0.038
PPP1R8 (UniProt Q12972)	1.04 ± 0.03	1.04 ± 0.019	1.02 ± 0.053	1.005 ± 0.0068	1.01 ± 0.041	0.995 ± 0.045
BYSL (UniProt Q13895)	0.998 ± 0.01	0.978 ± 0.033	0.999 ± 0.047	1.01 ± 0.025	0.996 ± 0.011	1.04 ± 0.056
PAFAH1B3 (UniProt Q15102)	0.946 ± 0.036	0.927 ± 0.038	0.939 ± 0.06	0.998 ± 0.087	0.99 ± 0.06	0.982 ± 0.039
UniProt Q12931 and related entries	0.97 ± 0.036	0.911 ± 0.031	0.956 ± 0.03	0.997 ± 0.06	0.997 ± 0.031	0.966 ± 0.037
UniProt Q13615 and related entries	1.04 ± 0.043	1.02 ± 0.011	1.02 ± 0.045	0.989 ± 0.036	1 ± 0.022	0.982 ± 0.02
PIN1 (UniProt Q13526)	1.03 ± 0.013	1.11 ± 0.069	1.05 ± 0.022	1.06 ± 0.031	1.06 ± 0.015	1.08 ± 0.057
UniProt Q15029 and related entries	1.03 ± 0.048	0.974 ± 0.11	1.02 ± 0.049	1.04 ± 0.071	1.07 ± 0.064	1.1 ± 0.1
UniProt Q14008 and related entries	1.02 ± 0.0027	1.06 ± 0.068	1.025 ± 0.0049	1.03 ± 0.018	1.016 ± 0.0082	1.046 ± 0.009

Reference: the supplement of paper PMC6411743
